Data taken from PMC9120966.
Results are given in words; binding and its absence hold for the method and conditions named. In cells and extracts the contact can be indirect. Some binding calls cover weakened binding; strength is not graded here. Sequences can lack the tags named with a protein.

Amino acid sequences for entries named in this document (tags omitted).
UniProt P51159: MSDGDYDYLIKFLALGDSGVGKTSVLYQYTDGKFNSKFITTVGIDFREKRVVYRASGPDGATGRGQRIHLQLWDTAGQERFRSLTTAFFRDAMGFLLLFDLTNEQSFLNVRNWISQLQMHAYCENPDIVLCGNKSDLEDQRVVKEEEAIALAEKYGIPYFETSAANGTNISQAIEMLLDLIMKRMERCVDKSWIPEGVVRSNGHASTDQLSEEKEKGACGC

Target: Flag-RAB27A (human) (UniProt P51159)
Assay: co-IP; HEK293T co-transfected with Flag-RAB27A and Myc-SHD (WT, D25H or R35W), harvested after 48 h; lysis in 150 mM NaCl, 50 mM Tris pH 7.4, 1 mM EDTA, 1% Triton-100; anti-FLAG M2 agarose at 4°C overnight; blots with anti-Flag and anti-Myc

- binding: binds
B1: Myc-tagged SHD (WT)-MLPH (domain or fragment, UniProt Q9BV36-1 1-146)
chain: MGKKLDLSKLTDEEAQHVLEVVQRDFDLRRKEEERLEALKGKIKKESSKRELLSDTAHLNETHCARCLQPYQLLVNSKRQCLECGLFTCKSCGRVHPEEQGWICDPCHLARVVKIGSLEWYYEHVKARFKRFGSAKVIRSLHGRLQ
